Source: paper PMC10167121, “Completing the TRB family: newly characterized members show ancient evolutionary origins and distinct localization, yet similar interactions”
No constants are given. Whether binding was seen depends on the method and setting. Binding can be weak; no strength is given. Sequences can lack the tags named with a protein.

Sequences of proteins named here, by UniProt entry; tags and fusion partners are left off. A change or cut given only in a name is not applied to a line headed by its entry.
UniProt F4I7L1: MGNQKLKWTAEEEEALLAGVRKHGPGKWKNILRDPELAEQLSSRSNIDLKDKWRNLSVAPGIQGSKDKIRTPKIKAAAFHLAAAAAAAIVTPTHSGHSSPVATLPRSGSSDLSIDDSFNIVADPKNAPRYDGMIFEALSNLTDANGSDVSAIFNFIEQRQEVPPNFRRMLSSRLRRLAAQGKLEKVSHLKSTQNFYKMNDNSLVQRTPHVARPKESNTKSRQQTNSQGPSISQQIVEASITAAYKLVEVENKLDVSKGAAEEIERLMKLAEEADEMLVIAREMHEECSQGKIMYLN

Legend:
Experiment in all cases: two-hybrid; Matchmaker GAL4-based system, S. cerevisiae PJ69-4a; growth on SD -Leu -Trp -His (with or without 1 mM or 3 mM 3-AT) or SD -Leu -Trp -Ade at 30 °C; empty vector as negative control
[1] = molecular target: T1, Telomere repeat binding protein 1 (TRB1), yeast two-hybrid fusion (A. thaliana) (UniProt Q8VWK4)
T1 sequence: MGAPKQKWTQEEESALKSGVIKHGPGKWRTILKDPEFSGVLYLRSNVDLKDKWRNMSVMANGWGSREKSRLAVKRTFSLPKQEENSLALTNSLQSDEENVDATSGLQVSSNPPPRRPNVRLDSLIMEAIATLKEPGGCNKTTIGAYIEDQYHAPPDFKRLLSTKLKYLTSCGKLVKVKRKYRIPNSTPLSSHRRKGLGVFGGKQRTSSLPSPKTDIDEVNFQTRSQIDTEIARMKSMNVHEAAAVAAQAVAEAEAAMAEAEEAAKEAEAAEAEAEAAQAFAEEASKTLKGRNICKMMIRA

[2] = molecular target: T2, Telomere repeat binding protein 3 (TRB3), yeast two-hybrid fusion (A. thaliana) (UniProt Q9M2X3)
T2 sequence: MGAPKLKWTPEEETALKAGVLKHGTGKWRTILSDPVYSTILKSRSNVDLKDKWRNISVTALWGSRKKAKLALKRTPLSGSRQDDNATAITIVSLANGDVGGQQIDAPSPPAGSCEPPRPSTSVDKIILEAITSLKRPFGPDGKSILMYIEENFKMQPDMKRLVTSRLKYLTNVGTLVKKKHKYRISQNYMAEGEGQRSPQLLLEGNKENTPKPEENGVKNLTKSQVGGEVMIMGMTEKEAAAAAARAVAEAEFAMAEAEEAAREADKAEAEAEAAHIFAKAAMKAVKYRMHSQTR

[3] = molecular target: T3, Telomere repeat binding protein 2 (TRB2), yeast two-hybrid fusion (A. thaliana) (UniProt Q9FJW5)
T3 sequence: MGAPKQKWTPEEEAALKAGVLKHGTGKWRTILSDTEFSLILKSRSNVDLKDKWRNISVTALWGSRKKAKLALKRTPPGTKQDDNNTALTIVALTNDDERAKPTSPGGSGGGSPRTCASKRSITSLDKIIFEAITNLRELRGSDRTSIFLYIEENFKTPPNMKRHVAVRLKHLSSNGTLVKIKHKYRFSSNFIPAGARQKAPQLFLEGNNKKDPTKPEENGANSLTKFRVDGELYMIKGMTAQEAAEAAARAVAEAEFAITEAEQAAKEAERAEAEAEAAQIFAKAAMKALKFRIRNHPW

Measured: binding

Telomere repeat binding protein 5 (TRB5), yeast two-hybrid fusion (A. thaliana)
binds: all assays above

Telomere repeat binding protein 4 (TRB4), yeast two-hybrid fusion (from UniProt F4I7L1)
binds: all assays above
